The text below walks through data of PMC7819943, “Rice protein-binding microarrays: a tool to detect cis-acting elements near promoter regions in rice”.

This is one part of the list.

For the experiment, the target named is T1, OsSMF1 (Oryza sativa, UniProt Q6ZLB0 1-436).
T1 sequence: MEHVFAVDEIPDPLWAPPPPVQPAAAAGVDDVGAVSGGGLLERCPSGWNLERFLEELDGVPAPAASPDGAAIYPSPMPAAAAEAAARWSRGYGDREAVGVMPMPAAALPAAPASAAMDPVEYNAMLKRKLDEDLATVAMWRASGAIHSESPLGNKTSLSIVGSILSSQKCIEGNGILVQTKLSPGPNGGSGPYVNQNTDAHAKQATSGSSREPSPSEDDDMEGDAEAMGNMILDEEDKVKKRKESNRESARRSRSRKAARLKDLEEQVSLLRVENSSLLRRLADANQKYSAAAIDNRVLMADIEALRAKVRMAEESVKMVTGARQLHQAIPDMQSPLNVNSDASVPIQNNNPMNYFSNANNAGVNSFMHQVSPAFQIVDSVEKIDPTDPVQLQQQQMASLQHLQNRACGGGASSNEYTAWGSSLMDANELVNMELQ
Nature of the experiment: protein-binding microarray (RPBM); PBS, 2% BSA, 51.3 ng/ul salmon testes DNA, 50 uM zinc acetate, 200 nM TF, 25 C, 1 h; high values mean tight binding. Conditions: protein: recombinant; tags: N-terminal polyhistidine and DsRed monomer fusion (pET32a); chain copies: 2; label: CyDye5-dUTP incorporated in the synthesized complementary strand; 3' TTTTT single-stranded linker to array surface; dsDNA, one strand shown. An outline of the steps:
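Binding signal is reported as fluorescence intensity per feature (arbitrary units) from an Axon 4000B scanner. Incubation used 200 nM of each Ni–NTA-purified, N-terminally polyhistidine- and DsRed-fused transcription factor from E. coli BL21-CodonPlus on a double-stranded custom Agilent array for 1 h at 25 °C, with 50 µM zinc acetate in the buffer, followed by washing.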
Regarding “CTACGACGCGGGCCACACGTCCCCGTGACAACTCATGCCACGGAGTCACCTAGTGCAG”, the binding signal is 3730 fluorescence intensity (a.u.).

As to “CGCCCCAATTTCCATGTACACGTAGCAGTTTCTCCCAAAACGGAGTCACCTAGTGCAG”, the binding signal is 6860 fluorescence intensity (a.u.).

Turning to “AGATAGAGAAGATATGCAAAACGATGTGAGTCATTAATGTCGGAGTCACCTAGTGCAG”, the binding signal is 6330 fluorescence intensity (a.u.).

For “GAAATTTCTATGAAGGAAGCTTAAATCAGTGGTAACCGATCGGAGTCACCTAGTGCAG”, the binding signal was 3140 fluorescence intensity (a.u.).

Regarding “AAGCAGTCAAGCTAAACCCGTCATTATTTCAGTTTGATGTCGGAGTCACCTAGTGCAG”, the binding signal is 4150 fluorescence intensity (a.u.).

Take “TTCGGGGATGTGAATGGGAATGGATTGGATCTTGGGATTACGGAGTCACCTAGTGCAG”: the binding signal was 3620 fluorescence intensity (a.u.).

As for “TTAGGGTTTACTCCTGATTTGCACCGGTATTTTCTTAGGGCGGAGTCACCTAGTGCAG”, the binding signal was 3860 fluorescence intensity (a.u.).

Take “CCTCCCTCCCATCCGATCCCGTCCGTCCATCTCCGATCCGCGGAGTCACCTAGTGCAG”: the binding signal is 4300 fluorescence intensity (a.u.).

Turning to “AACTCCTCGCCACCACGCCGCTTTATTCTCTAAGAACCCCCGGAGTCACCTAGTGCAG”, the binding signal is 40700 fluorescence intensity (a.u.).

Regarding “AGGCTTGTAGACGTGTTAAGGTTCCTGCCTGTACAAATGCCGGAGTCACCTAGTGCAG”, the binding signal is 3590 fluorescence intensity (a.u.).

Turning to “CGCCCGCTGCATGCCACCTATGTCTGCGTTATTGCTTCTCCGGAGTCACCTAGTGCAG”, the binding signal is 5160 fluorescence intensity (a.u.).

For the sequence “GCTAACGCAGCAATGACACGTCAAGAACTGAAAATTAAATCGGAGTCACCTAGTGCAG”, the binding signal was 3580 fluorescence intensity (a.u.).

In the case of “ACACGCAGTCGCGCCTTCCCCAGTCACCAACACGCCGAGGCGGAGTCACCTAGTGCAG”, the binding signal is 3800 fluorescence intensity (a.u.).

“GTAAGGTGCTCGATTAGCACACGTGCTCACCTTCACGGCGCGGAGTCACCTAGTGCAG”: the binding signal is 3150 fluorescence intensity (a.u.).

As to “CACCAGTAATATCGTACAGTACTACTCCAACATGTCACCACGGAGTCACCTAGTGCAG”, the binding signal is 4500 fluorescence intensity (a.u.).

As for “CAACATCTGACCACTACACAGCTCCCGTGGACGGTGGACCCGGAGTCACCTAGTGCAG”, the binding signal was 3780 fluorescence intensity (a.u.).

For “AACCCGCTCCGACACGTGCCACCCCTTCCCGCCACCTCGTCGGAGTCACCTAGTGCAG”, the binding signal was 12300 fluorescence intensity (a.u.).

Regarding “GAATTTGTCGTGTCATATCCACTCGAGTCGCGAGTTGGCCCGGAGTCACCTAGTGCAG”, the binding signal was 4300 fluorescence intensity (a.u.).

In the case of “TCGATCGCTCCCGTTCGACGCCGATCGGATGGAGCAGCGTCGGAGTCACCTAGTGCAG”, the binding signal was 3270 fluorescence intensity (a.u.).

For “ACCACCGACCGCGTCGACACCGTAGACCGTGCATCAGCCGCGGAGTCACCTAGTGCAG”, the binding signal is 3640 fluorescence intensity (a.u.).

As for “CGACGATGCTGGCAGCCGTGGACGCCGTGGCTGACTCTCGCGGAGTCACCTAGTGCAG”, the binding signal was 3320 fluorescence intensity (a.u.).

“TTACAGCTCACACTGACGCCTGGGCCCCACTAGTCAGTCTCGGAGTCACCTAGTGCAG”: the binding signal was 3220 fluorescence intensity (a.u.).

Turning to “TCTAGTCTAGTATTCCACGCGGCAAAGCAACGTGTACTTTCGGAGTCACCTAGTGCAG”, the binding signal was 5620 fluorescence intensity (a.u.).

With “ATAGAGTGTACTTTCGTATGTCATACTTGAAATTTGCCAGCGGAGTCACCTAGTGCAG”, the binding signal was 3670 fluorescence intensity (a.u.).

In the case of “TAGTGCTGTGCTGGCTAGTCATTTTATAAGTTCATAGGTCCGGAGTCACCTAGTGCAG”, the binding signal is 5440 fluorescence intensity (a.u.).

For the sequence “TTTGGGAAGAAATGGTGATGGTGGTTTCGTTGGTGTTGTGCGGAGTCACCTAGTGCAG”, the binding signal was 3310 fluorescence intensity (a.u.).

As to “AGAAAGGATCTGACTAGGTGGGCCCAATGACGACGTGGGGCGGAGTCACCTAGTGCAG”, the binding signal was 6770 fluorescence intensity (a.u.).

Regarding “GGCTTCAACGGTGTTCAATATCTTAGGTGATGTCCTTTTGCGGAGTCACCTAGTGCAG”, the binding signal was 3340 fluorescence intensity (a.u.).

Consider “GGGATCTGAAGTGAACTTATTTCATAAATAAAATGGGCTGCGGAGTCACCTAGTGCAG”, for which the binding signal is 3220 fluorescence intensity (a.u.).

Consider “CAGTCAAGTGTGATCTGGATTCCTCGTCCCGTGGAGCCTTCGGAGTCACCTAGTGCAG”, for which the binding signal is 3910 fluorescence intensity (a.u.).

Take “GTCCTCCCTTTCCCACTCCACCTATGACGACCACCGTCGGCGGAGTCACCTAGTGCAG”: the binding signal was 10800 fluorescence intensity (a.u.).

For “CGCGTCTCTCCTCTCCCCGCTTGCACTGCAGCTCACGCGTCGGAGTCACCTAGTGCAG”, the binding signal is 3150 fluorescence intensity (a.u.).

In the case of “CTACAAAATGTAATTGCTAGTTATGACTCAGACGCTACCTCGGAGTCACCTAGTGCAG”, the binding signal was 10500 fluorescence intensity (a.u.).

As to “TACCTGATAACACACGTGTGGTGGCTTAGCTAGCTTCCTTCGGAGTCACCTAGTGCAG”, the binding signal was 5280 fluorescence intensity (a.u.).

Regarding “TATGTGATTTACATGAGTCATTACGGTGTGCAGATGCCAACGGAGTCACCTAGTGCAG”, the binding signal is 5040 fluorescence intensity (a.u.).

As for “ACCAAATGAAATACAGAGCTCAGCAACTTGTAGCATTGGTCGGAGTCACCTAGTGCAG”, the binding signal was 24800 fluorescence intensity (a.u.).

Turning to “TTCGCCGTCGTCCTGCTGCTTCCGCCGCATCCATCCCGGTCGGAGTCACCTAGTGCAG”, the binding signal was 6990 fluorescence intensity (a.u.).

For “GCGGCGCGACAGCGACAAAGCGCACGCGCGCGGCGAGCTGCGGAGTCACCTAGTGCAG”, the binding signal is 30800 fluorescence intensity (a.u.).

“AAGTCGTTCACTCGGCAACGTGTCATCCGGATAGACGTTGCGGAGTCACCTAGTGCAG”: the binding signal is 6700 fluorescence intensity (a.u.).

On to “CTATGTTAATCTTAAGCGGGACGGGACATACGTGGAATCTCGGAGTCACCTAGTGCAG”, for which the binding signal was 5260 fluorescence intensity (a.u.).

“TTACTCACGTTGGCGTGGTGGACCACGTCCACCGACCCGCCGGAGTCACCTAGTGCAG”: the binding signal was 4090 fluorescence intensity (a.u.).

“CAGCTTTTCTAGCATGCCACGCCACCAAATTTACAATCAGCGGAGTCACCTAGTGCAG”: the binding signal was 3160 fluorescence intensity (a.u.).

Regarding “CTGTGATGTGCGAGTCATCACGTGCATAGCAAAATGGGAACGGAGTCACCTAGTGCAG”, the binding signal is 4550 fluorescence intensity (a.u.).

For the sequence “TCTTTCTCAAAATAATTTGTCTGGAACAATCCCTAGATTCCGGAGTCACCTAGTGCAG”, the binding signal is 21700 fluorescence intensity (a.u.).

As to “GGTACATACCACAGATAGCGACAACACCAACTCATACTATCGGAGTCACCTAGTGCAG”, the binding signal was 3190 fluorescence intensity (a.u.).

Consider “GTTGGTGTGCACGTGAGTACACGTGAGGGCCTATGTGCATCGGAGTCACCTAGTGCAG”, for which the binding signal was 3180 fluorescence intensity (a.u.).

As to “CTTCTCACACGTCGTCAAAGCCTCTGACTTTGGATATCCCCGGAGTCACCTAGTGCAG”, the binding signal is 4680 fluorescence intensity (a.u.).

Consider “CGTGTCCATCCTCCACCACGTCACGCTGGGCGGGACCGGCCGGAGTCACCTAGTGCAG”, for which the binding signal was 13200 fluorescence intensity (a.u.).

As to “CATATTCATATTGATGTTAATGAATCTAGACATTATTAACCGGAGTCACCTAGTGCAG”, the binding signal is 34600 fluorescence intensity (a.u.).

Turning to “ATGATGTGATGGCGCCCGGTGGACAGCTTCTCCAGTCGGCCGGAGTCACCTAGTGCAG”, the binding signal is 22600 fluorescence intensity (a.u.).

On to “GAACTCCGAAAATCGTAAGCCCAGGACGTGTCGGCACGGGCGGAGTCACCTAGTGCAG”, for which the binding signal was 4540 fluorescence intensity (a.u.).

In the case of “TTCGTTTACCTTCTCCGACTCCTGACGCGGCCTCAACAAGCGGAGTCACCTAGTGCAG”, the binding signal is 4940 fluorescence intensity (a.u.).

As to “ATCTCGCTCGGTTTCGCCGACCCTGACGGGGAACCAACCACGGAGTCACCTAGTGCAG”, the binding signal was 3600 fluorescence intensity (a.u.).

With “GCTGCTCTCTTTCCTCTCTTCTCTCTCTGTTTTCTCTCCTCGGAGTCACCTAGTGCAG”, the binding signal was 18500 fluorescence intensity (a.u.).
